Experiment [1] addresses λD-Base display phage (gpD fused to basic aptamer [Gly-Arg]4) (bacteriophage lambda) (UniProt P03712). Briefly: lambda two-hybrid co-infection at increasing MOI.
For experiment [2] the target is unchanged. Briefly: lambda two-hybrid: phage pre-association, lysogen counts.

By UniProt entry, the sequences of proteins in these tests, tags left out. Where a name states a change or a piece, a line headed by the entry shows the natural chain unless it says otherwise.
UniProt P03712: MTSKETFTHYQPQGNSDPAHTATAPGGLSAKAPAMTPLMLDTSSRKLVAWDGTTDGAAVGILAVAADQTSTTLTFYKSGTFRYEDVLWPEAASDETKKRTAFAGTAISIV

Results are given in words; binding and its absence hold for the method and conditions named. Some results given as binding are weak or reduced against the parent protein; the word gives no strength.

Consider “λD-Acid display phage (gpD fused to acidic aptamer [Gly-Glu]4) (from UniProt P03712 1-110)”, for which the binding result in experiment [1] and in experiment [2] was “binds” in each case.

(Values after patent US20100022402A1, “Methods and Compositions for the In Vitro High-Throughput Detection of Protein/Protein Interactions” (priority 2004, published 2010).)
